{"source": "PubChem BioAssay AID1259308 (NCATS, 2017)", "assay": "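Genes whose loss raises luciferase production in HEK293 cells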 (primary screen)", "cell system": "human HEK293 embryonic kidney cells stably expressing firefly luciferase (HEK-CMV-Luc2-Hygro)", "reagents": "single siRNA against human genes, 0.8 pmol siRNA per well", "timing": "72 h", "measured": "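Luciferase light (ONE-Glo) measured on one replicate plate set and viability (CellTiter-Glo) on the other, scaled to a negative control siRNA, with robust z-scores and luciferase per cell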", "direction": "total luciferase, z-score: higher = more reporter protein produced", "rule for the call": "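Active when the median/MAD z-score for overall luciferase is greater than 3; a gene was taken forward for validation with new siRNAs if at least two of its three siRNAs passed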", "meaning of the calls": "active = raised luciferase; inactive = no rise", "note": "The deposit covers about 59,000 reagents; shown is a random part of them. Over the whole deposit, about 1,510 (2.6%) got an active call. 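Calls use total luciferase alone and ignore viability, so some active siRNAs may act by altering cell number.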 Reagents against one gene are numbered here. Further read-outs or replicates are left out here. No sequences are given here."}
{"gene symbol": "KRT20", "reagent no.": 1, "total luciferase, z-score": 1.04, "Outcome": "inactive"}
{"gene symbol": "KRT20", "reagent no.": 2, "total luciferase, z-score": 1.59, "Outcome": "inactive"}
{"gene symbol": "KRT20", "reagent no.": 3, "total luciferase, z-score": -0.816, "Outcome": "inactive"}
{"gene symbol": "UCN3", "reagent no.": 1, "total luciferase, z-score": -0.341, "Outcome": "inactive"}
{"gene symbol": "UCN3", "reagent no.": 2, "total luciferase, z-score": -0.0397, "Outcome": "inactive"}
{"gene symbol": "UCN3", "reagent no.": 3, "total luciferase, z-score": -1.66, "Outcome": "inactive"}
{"gene symbol": "RAB8B", "reagent no.": 1, "total luciferase, z-score": -0.174, "Outcome": "inactive"}
{"gene symbol": "RAB8B", "reagent no.": 2, "total luciferase, z-score": -1.85, "Outcome": "inactive"}
{"gene symbol": "RAB8B", "reagent no.": 3, "total luciferase, z-score": 1.07, "Outcome": "inactive"}
{"gene symbol": "CD79B", "reagent no.": 1, "total luciferase, z-score": -1.19, "Outcome": "inactive"}
{"gene symbol": "CD79B", "reagent no.": 2, "total luciferase, z-score": -2, "Outcome": "inactive"}
{"gene symbol": "CD79B", "reagent no.": 3, "total luciferase, z-score": -0.402, "Outcome": "inactive"}
{"gene symbol": "LDLRAD3", "reagent no.": 1, "total luciferase, z-score": -0.193, "Outcome": "inactive"}
{"gene symbol": "LDLRAD3", "reagent no.": 2, "total luciferase, z-score": 0.373, "Outcome": "inactive"}
{"gene symbol": "LDLRAD3", "reagent no.": 3, "total luciferase, z-score": -0.416, "Outcome": "inactive"}

As entered above:
RAB8B #3, Outcome: inactive
Result of LDLRAD3 #3 in “Outcome”: inactive
Result for CD79B #3 under “total luciferase, z-score”: -0.402
For “total luciferase, z-score”, CD79B #1 has -1.19

The list goes on.
{"gene symbol": "GABRG1", "reagent no.": 1, "total luciferase, z-score": 0.105, "Outcome": "inactive"}
{"gene symbol": "GABRG1", "reagent no.": 2, "total luciferase, z-score": 0.0688, "Outcome": "inactive"}
{"gene symbol": "GABRG1", "reagent no.": 3, "total luciferase, z-score": -0.343, "Outcome": "inactive"}
{"gene symbol": "LRRK2", "reagent no.": 1, "total luciferase, z-score": 0.66, "Outcome": "inactive"}
{"gene symbol": "LRRK2", "reagent no.": 2, "total luciferase, z-score": -1.8, "Outcome": "inactive"}
{"gene symbol": "LRRK2", "reagent no.": 3, "total luciferase, z-score": 0.466, "Outcome": "inactive"}
{"gene symbol": "PGAM1P4", "reagent no.": 1, "total luciferase, z-score": -0.668, "Outcome": "inactive"}
{"gene symbol": "PGAM1P4", "reagent no.": 2, "total luciferase, z-score": -0.128, "Outcome": "inactive"}
{"gene symbol": "PGAM1P4", "reagent no.": 3, "total luciferase, z-score": 2.02, "Outcome": "inactive"}
{"gene symbol": "C20orf173", "reagent no.": 1, "total luciferase, z-score": 1.49, "Outcome": "inactive"}
{"gene symbol": "C20orf173", "reagent no.": 2, "total luciferase, z-score": -1.35, "Outcome": "inactive"}
{"gene symbol": "C20orf173", "reagent no.": 3, "total luciferase, z-score": 1.33, "Outcome": "inactive"}
{"gene symbol": "MATN1", "reagent no.": 1, "total luciferase, z-score": -0.984, "Outcome": "inactive"}
{"gene symbol": "MATN1", "reagent no.": 2, "total luciferase, z-score": 1.76, "Outcome": "inactive"}
{"gene symbol": "MATN1", "reagent no.": 3, "total luciferase, z-score": -0.0855, "Outcome": "inactive"}
{"gene symbol": "MDN1", "reagent no.": 1, "total luciferase, z-score": -0.329, "Outcome": "inactive"}
{"gene symbol": "MDN1", "reagent no.": 2, "total luciferase, z-score": -0.968, "Outcome": "inactive"}
{"gene symbol": "MDN1", "reagent no.": 3, "total luciferase, z-score": -0.148, "Outcome": "inactive"}
